Experiment: peptide synthesis
Conditions: conjugation step

| Substance | conjugation yield [%] |
| --- | --- |
| N-[N′,N′,N′″,N′″-Tetrakis (hydroxy-carboxy-methyl)-N″-(carboxy-methyl)-diethylin-triamino]-[(8-amino-1-oxo-octyl)-Phe-(D-Trp)-Leu-Asp-Ile-Ile-Trp-OH] | 17.9 |
| N-[N′,N′,N′″,N′″-Tetrakis (hydroxy-carboxy-methyl)-N″-(carboxy-methyl)-diethylin-triamino]-Gly-Phe-(D-Trp)-Leu-Asp-Ile-Ile-Trp-OH | 11.3 |
